Data published in the supplement of paper PMC6289059.
The list shows a part of the results. Single values are uncertain, as repeats are few or missing.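 Hepatocyte-like cells derived from human stem cells with CRISPR-disrupted DGUOK model liver mtDNA depletion syndrome. Each well's ATP signal was scored against other wells on the same plate, and drugs scoring 3 or above were primary hits.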

What follows are compounds tested on DGUOK Δ14/Δ5 iPSC-derived hepatocyte-like cells (SV20) (assay: ATP level (CellTiter-Glo luminescence) Z score relative to plate distribution, under 2-DG glycolysis block; higher = more cellular ATP (rescue of mitochondrial ATP production)). Conditions: 5 µM; treatment time: day 15 to day 20 of differentiation (5 days); 2-deoxy-D-glucose: 20 mM for 24 h before assay.

Structure (SMILES)	ATP level
NC(=O)c1cccnc1	inactive: 0.707
Nc1nccs1	inactive: -1.96
COc1cc(C)c2c(=O)cc(-c3ccccc3)oc2c1	inactive: 0.649
CC(C)(Oc1ccc(C2CC2(Cl)Cl)cc1)C(=O)O (stereo not drawn)	inactive: -14.6
CC1=C(C(=O)O)N2C(=O)[C@@H](NC(=O)[C@H](N)c3ccc(O)cc3)[C@H]2SC1	inactive: 1.67
CC1=CCCC(C)=CCC(C)(C)C=CC1 [HUMULENE (alpha)]	inactive: 1.91
O=C(O)/C=C/c1ccccc1	inactive: 1.88
O=c1cc(-c2ccccc2)oc2ccc(O)cc12	inactive: 1.75
Nc1ncnc2c1ncn2[C@H]1C[C@H](O)[C@@H](CO)O1	inactive: 1.77
Nc1ccc(S(N)(=O)=O)cc1	inactive: 0.865
CCCCCCCCCCCCC(C(=O)O)C(C)C(=O)O (stereo not drawn)	inactive: 2.01
COc1ccc2c(c1)OCC(Cc1ccc(OC)c(OC)c1)C2=O (stereo not drawn)	inactive: -1.23
COc1ccc([C@H]2Oc3cc(OC)cc(OC)c3C[C@H]2O)cc1	inactive: -4.05
CCC(C)(C)c1ccc(CC(C)CN2C[C@@H](C)O[C@@H](C)C2)cc1 (stereo partly drawn)	inactive: 2.37
CC[C@]12CCCN3CCc4c(n(c5ccccc45)[C@@](O)(C(=O)OC)C1)[C@@H]32	inactive: -0.401
CC(=O)c1ccc2c(c1)N(CCCN1CCN(CCO)CC1)c1ccccc1S2	inactive: -3.66
O=c1c(O)c(-c2ccccc2)oc2cc(O)cc(O)c12	inactive: -3.07
O=C(O)c1cc(=O)c2c(OCC(O)COc3cccc4oc(C(=O)O)cc(=O)c34)cccc2o1	inactive: -2.05
Oc1c(Cl)cc(Cl)cc1Sc1cc(Cl)cc(Cl)c1O	inactive: -3.4
C=CCc1ccccc1OCC(O)CNC(C)C (stereo not drawn)	inactive: -2.85
CCCCOc1ccc(CC(=O)NO)cc1	inactive: 0.0339
CC(=O)OC(C)C[N+](C)(C)C (stereo not drawn)	inactive: 0.94
CCCCC[C@H](CC(=O)NO)C(=O)N[C@H](C(=O)N1CCC[C@H]1CO)C(C)C	inactive: -8.27
Nc1nc(=O)c2c([nH]1)NCC(CNc1ccc(C(=O)N[C@@H](CCC(=O)O)C(=O)O)cc1)N2C=O (stereo partly drawn)	inactive: 1.8
COc1ccc2nc3cc(Cl)ccc3c(Nc3cc(CN4CCCC4)c(O)c(CN4CCCC4)c3)c2n1	inactive: -5.93
CC(C)CCC[C@@H](C)[C@H]1CC[C@H]2[C@@H]3CC=C4C[C@@H](O)CC[C@]4(C)[C@H]3CC[C@]12C	inactive: 0.74
O=C(O)/C=C/C=C/c1ccc2c(c1)OCO2	inactive: -1.04

3 entries picked at random from the list so far, as already listed:
Structure (SMILES)	ATP level
O=C(O)/C=C/C=C/c1ccc2c(c1)OCO2	inactive: -1.04
COc1cc(C)c2c(=O)cc(-c3ccccc3)oc2c1	inactive: 0.649
CC1=CCCC(C)=CCC(C)(C)C=CC1 [HUMULENE (alpha)]	inactive: 1.91

More structures

Structure (SMILES)	ATP level
Nc1ccn([C@@H]2O[C@H](CO)[C@@H](O)[C@H]2O)c(=O)n1	inactive: -1.73
C=CC(C1=CC(=O)C(OC)=CC1=O)c1ccc(O)cc1 (stereo not drawn)	inactive: -1.92
CN(C)CCC(c1ccccc1)c1ccccn1 (stereo not drawn)	inactive: 1.54
O=C(/C=C/c1ccc(O)cc1)c1ccccc1	inactive: 1.42
CC[C@]1(O)C[C@@H]2CN(CCc3c([nH]c4ccccc34)[C@@](C(=O)OC)(c3cc4c(cc3OC)N(C)[C@H]3[C@@](O)(C(=O)OC)[C@H](OC(C)=O)[C@]5(CC)C=CCN6CC[C@]43[C@@H]65)C2)C1	inactive: -0.268
Oc1cc(O)c2c(c1)O[C@H](c1cc(O)c(O)c(O)c1)[C@H](O)[C@H]2c1c(O)cc(O)c2c1O[C@H](c1cc(O)c(O)c(O)c1)[C@H](O)[C@H]2c1c(O)cc(O)c2c1O[C@H](c1cc(O)c(O)c(O)c1)[C@H](O)C2	inactive: -0.137
CCN(CCCc1ccccc1)CCCc1ccccc1	inactive: 0.679
CCCCC(CC)COC(=O)c1ccccc1O (stereo not drawn)	inactive: 1.49
CC(=O)[C@H]1CC[C@H]2[C@@H]3CC=C4C[C@@H](OC(=O)CCC(=O)O)CC[C@]4(C)[C@H]3CC[C@]12C	inactive: 1.96
CC(CCc1ccc(O)cc1)NCC(O)c1ccc(O)cc1 (stereo not drawn)	inactive: 1.32
O=P(O)(O)C(O)(Cc1cccnc1)P(=O)(O)O	inactive: 1.6
COc1ccc(-n2nc(CCC(=O)N(C)O)cc2-c2ccc(Cl)cc2)cc1	inactive: -8.75
NCCCCCN	inactive: 0.0508
CCN(CC)C(=O)N1CCN(C)CC1	inactive: -2.99
O=C(O)c1cc(O)c(O)c(O)c1	inactive: -5.74
CC(C)=CCC/C(C)=C/COc1ccc2ccc(=O)oc2c1	inactive: -3.86
COc1c(OC)c2occc2c2oc(=O)ccc12	inactive: 2.44
Cc1cc(CC(C)CC(C)(C)C)n(O)c(=O)c1 (stereo not drawn)	inactive: -11.1
O=S(=O)(O)CCSSCCS(=O)(=O)O	inactive: -2.28
CN1CCC[C@H]1c1cccnc1	inactive: -0.846
CCCC(C(=O)OCCN(CC)CC)(c1ccccc1)c1ccccc1	inactive: -0.823
C[C@H](CCC(=O)NCC(=O)O)[C@H]1CC[C@H]2[C@@H]3[C@H](O)C[C@@H]4C[C@H](O)CC[C@]4(C)[C@H]3C[C@H](O)[C@]12C	inactive: 2.59
Clc1ccc(COC(Cn2ccnc2)c2ccc(Cl)cc2Cl)cc1 (stereo not drawn)	inactive: -1.14
NC(=O)NO	inactive: 1.28
Clc1ccccc1C(c1ccccc1)(c1ccccc1)n1ccnc1	inactive: -6.13
CO/N=C1\CN(c2nc3c(cc2F)c(=O)c(C(=O)O)cn3C2CC2)CC1CN (stereo not drawn)	inactive: -1.11
